Literature values, collected in patent US20050004106A1, “Combinations of GABA modulators and anticonvulsants, and atypical antipsychotics” (Pfizer Inc, priority 2003, published 2005).
For at least one compound, name, drawing or mass did not settle the structure.

Details: mood disorder

[Li] [Lithium]
response rate: 50%
